According to patent US9926581B2, “Fagopyritol synthase genes and uses thereof” (Cornell Research Foundation, Inc., priority 2002, dated 2018):

Legend:
soybean explants [1] = test: Soybean explant feeding 3 days with 50 mM cyclitol in 1% sucrose, slow drying time course, soluble carbohydrates in axis, cotyledon, seed coat and leaf
soybean explants [2] = test: Soybean explant feeding with 50 mM free cyclitols for one week, soluble carbohydrates in mature seeds; assay type: in vivo, Glycine max (L.) Merrill cv. Chippewa 64
[3] = 3 days transport of sucrose (1%) and D-chiro-inositol (50 mM), after 2 days slow drying, Rep 1
[4] = 3 days transport of sucrose (1%) and D-chiro-inositol (50 mM), after 2 days slow drying, Rep 2
[5] = 3 days transport of sucrose (1%) and D-chiro-inositol (50 mM), after 4 days slow drying, Rep 1
[6] = 3 days transport of sucrose (1%) and D-chiro-inositol (50 mM), after 4 days slow drying, Rep 2
[7] = 3 days transport of sucrose (1%) and D-chiro-inositol (50 mM), after 14 days slow drying, Rep 1
[8] = 3 days transport of sucrose (1%) and D-chiro-inositol (50 mM), after 14 days slow drying, Rep 2
[9] = 3 days transport of sucrose (1%) and D-chiro-inositol (50 mM), before slow drying, Rep 1
[10] = 3 days transport of sucrose (1%) and D-chiro-inositol (50 mM), before slow drying, Rep 2
[11] = 3 days transport of sucrose (1%) and D-pinitol (50 mM), after 2 days slow drying, Rep 1
[12] = 3 days transport of sucrose (1%) and D-pinitol (50 mM), after 2 days slow drying, Rep 2
[13] = 3 days transport of sucrose (1%) and D-pinitol (50 mM), after 4 days slow drying, Rep 1
[14] = 3 days transport of sucrose (1%) and D-pinitol (50 mM), after 4 days slow drying, Rep 2
[15] = 3 days transport of sucrose (1%) and D-pinitol (50 mM), after 14 days slow drying, Rep 1
[16] = 3 days transport of sucrose (1%) and D-pinitol (50 mM), after 14 days slow drying, Rep 2
[17] = 3 days transport of sucrose (1%) and D-pinitol (50 mM), before slow drying, Rep 1
[18] = 3 days transport of sucrose (1%) and D-pinitol (50 mM), before slow drying, Rep 2
[19] = 3 days transport of sucrose (1%) and myo-inositol (50 mM), after 2 days slow drying, Rep 1
[20] = 3 days transport of sucrose (1%) and myo-inositol (50 mM), after 2 days slow drying, Rep 2
[21] = 3 days transport of sucrose (1%) and myo-inositol (50 mM), after 4 days slow drying, Rep 1
[22] = 3 days transport of sucrose (1%) and myo-inositol (50 mM), after 4 days slow drying, Rep 2
[23] = 3 days transport of sucrose (1%) and myo-inositol (50 mM), after 14 days slow drying, Rep 1
[24] = 3 days transport of sucrose (1%) and myo-inositol (50 mM), after 14 days slow drying, Rep 2
[25] = 3 days transport of sucrose (1%) and myo-inositol (50 mM), before slow drying, Rep 1
[26] = 3 days transport of sucrose (1%) and myo-inositol (50 mM), before slow drying, Rep 2
[27] = 3 days transport of sucrose (1%) without cyclitols, after 2 days slow drying, Rep 1
[28] = 3 days transport of sucrose (1%) without cyclitols, after 2 days slow drying, Rep 2
[29] = 3 days transport of sucrose (1%) without cyclitols, after 4 days slow drying, Rep 1
[30] = 3 days transport of sucrose (1%) without cyclitols, after 4 days slow drying, Rep 2
[31] = 3 days transport of sucrose (1%) without cyclitols, after 14 days slow drying, Rep 1
[32] = 3 days transport of sucrose (1%) without cyclitols, after 14 days slow drying, Rep 2
[33] = 3 days transport of sucrose (1%) without cyclitols, before slow drying, Rep 1
[34] = 3 days transport of sucrose (1%) without cyclitols, before slow drying, Rep 2

CO[C@H]1[C@H](O)[C@@H](O[C@H]2O[C@H](CO[C@H]3O[C@H](CO)[C@H](O)[C@H](O)[C@H]3O)[C@H](O)[C@H](O)[C@H]2O)[C@@H](O)[C@H](O)[C@@H]1O [Ciceritol, ciceritol]
Accumulation of soluble carbohydrates in soybean axis (soybean explants [1]; [3]): 0 μg/axis | Accumulation of soluble carbohydrates in soybean cotyledon (soybean explants [1]; [3]): 13.35 μg/cotyledon | Accumulation of soluble carbohydrates in soybean seed coat (soybean explants [1]; [3]): 0 μg/seed coat | Accumulation of soluble carbohydrates in soybean axis (soybean explants [1]; [4]): 0 μg/axis | Accumulation of soluble carbohydrates in soybean cotyledon (soybean explants [1]; [4]): 0 μg/cotyledon | Accumulation of soluble carbohydrates in soybean seed coat (soybean explants [1]; [4]): 0 μg/seed coat | Accumulation of soluble carbohydrates in soybean axis (soybean explants [1]; [5]): 0 μg/axis | Accumulation of soluble carbohydrates in soybean cotyledon (soybean explants [1]; [5]): 12.69 μg/cotyledon | Accumulation of soluble carbohydrates in soybean seed coat (soybean explants [1]; [5]): 0 μg/seed coat | Accumulation of soluble carbohydrates in soybean axis (soybean explants [1]; [6]): 0.27 μg/axis | Accumulation of soluble carbohydrates in soybean cotyledon (soybean explants [1]; [6]): 0 μg/cotyledon | Accumulation of soluble carbohydrates in soybean seed coat (soybean explants [1]; [6]): 0 μg/seed coat | Accumulation of soluble carbohydrates in soybean axis (soybean explants [1]; [7]): 0 μg/axis | Accumulation of soluble carbohydrates in soybean cotyledon (soybean explants [1]; [7]): 3.82 μg/cotyledon | Accumulation of soluble carbohydrates in soybean seed coat (soybean explants [1]; [7]): 0 μg/seed coat | Accumulation of soluble carbohydrates in soybean axis (soybean explants [1]; [8]): 2.69 μg/axis | Accumulation of soluble carbohydrates in soybean cotyledon (soybean explants [1]; [8]): 2.83 μg/cotyledon | Accumulation of soluble carbohydrates in soybean seed coat (soybean explants [1]; [8]): 0 μg/seed coat | Accumulation of soluble carbohydrates in soybean axis (soybean explants [1]; [9]): 0 μg/axis | Accumulation of soluble carbohydrates in soybean cotyledon (soybean explants [1]; [9]): 0 μg/cotyledon | Accumulation of soluble carbohydrates in soybean axis (soybean explants [1]; [10]): 0 μg/axis | Accumulation of soluble carbohydrates in soybean cotyledon (soybean explants [1]; [10]): 6.06 μg/cotyledon | Accumulation of soluble carbohydrates in soybean axis (soybean explants [1]; [11]): 0 μg/axis | Accumulation of soluble carbohydrates in soybean cotyledon (soybean explants [1]; [11]): 0 μg/cotyledon | Accumulation of soluble carbohydrates in soybean seed coat (soybean explants [1]; [11]): 0 μg/seed coat | Accumulation of soluble carbohydrates in soybean axis (soybean explants [1]; [12]): 0.80 μg/axis | Accumulation of soluble carbohydrates in soybean cotyledon (soybean explants [1]; [12]): 2.47 μg/cotyledon | Accumulation of soluble carbohydrates in soybean seed coat (soybean explants [1]; [12]): 0 μg/seed coat | Accumulation of soluble carbohydrates in soybean axis (soybean explants [1]; [13]): 0.89 μg/axis | Accumulation of soluble carbohydrates in soybean cotyledon (soybean explants [1]; [13]): 0 μg/cotyledon | Accumulation of soluble carbohydrates in soybean seed coat (soybean explants [1]; [13]): 0 μg/seed coat | Accumulation of soluble carbohydrates in soybean axis (soybean explants [1]; [14]): 0.56 μg/axis | Accumulation of soluble carbohydrates in soybean cotyledon (soybean explants [1]; [14]): 3.32 μg/cotyledon | Accumulation of soluble carbohydrates in soybean seed coat (soybean explants [1]; [14]): 0 μg/seed coat | Accumulation of soluble carbohydrates in soybean axis (soybean explants [1]; [15]): 1.42 μg/axis | Accumulation of soluble carbohydrates in soybean cotyledon (soybean explants [1]; [15]): 4.88 μg/cotyledon | Accumulation of soluble carbohydrates in soybean seed coat (soybean explants [1]; [15]): 0 μg/seed coat | Accumulation of soluble carbohydrates in soybean axis (soybean explants [1]; [16]): 1.43 μg/axis | Accumulation of soluble carbohydrates in soybean cotyledon (soybean explants [1]; [16]): 4.85 μg/cotyledon | Accumulation of soluble carbohydrates in soybean seed coat (soybean explants [1]; [16]): 0 μg/seed coat | Accumulation of soluble carbohydrates in soybean axis (soybean explants [1]; [17]): 0 μg/axis | Accumulation of soluble carbohydrates in soybean cotyledon (soybean explants [1]; [17]): 0 μg/cotyledon | Accumulation of soluble carbohydrates in soybean axis (soybean explants [1]; [18]): 0 μg/axis | Accumulation of soluble carbohydrates in soybean cotyledon (soybean explants [1]; [18]): 0 μg/cotyledon | Accumulation of soluble carbohydrates in soybean axis (soybean explants [1]; [19]): 0 μg/axis | Accumulation of soluble carbohydrates in soybean cotyledons (soybean explants [1]; [19]): 0 μg/cotyledon | Accumulation of soluble carbohydrates in soybean seed coats (soybean explants [1]; [19]): 0 μg/seed coat | Accumulation of soluble carbohydrates in soybean axis (soybean explants [1]; [20]): 0 μg/axis | Accumulation of soluble carbohydrates in soybean cotyledons (soybean explants [1]; [20]): 0 μg/cotyledon | Accumulation of soluble carbohydrates in soybean seed coats (soybean explants [1]; [20]): 0 μg/seed coat | Accumulation of soluble carbohydrates in soybean axis (soybean explants [1]; [21]): 0.39 μg/axis | Accumulation of soluble carbohydrates in soybean cotyledons (soybean explants [1]; [21]): 0 μg/cotyledon | Accumulation of soluble carbohydrates in soybean axis (soybean explants [1]; [22]): 0.42 μg/axis | Accumulation of soluble carbohydrates in soybean cotyledons (soybean explants [1]; [22]): 0 μg/cotyledon | Accumulation of soluble carbohydrates in soybean seed coats (soybean explants [1]; [22]): 0 μg/seed coat | Accumulation of soluble carbohydrates in soybean axis (soybean explants [1]; [23]): 0.56 μg/axis | Accumulation of soluble carbohydrates in soybean cotyledons (soybean explants [1]; [23]): 2.01 μg/cotyledon | Accumulation of soluble carbohydrates in soybean seed coats (soybean explants [1]; [23]): 0 μg/seed coat | Accumulation of soluble carbohydrates in soybean axis (soybean explants [1]; [24]): 0.29 μg/axis | Accumulation of soluble carbohydrates in soybean cotyledons (soybean explants [1]; [24]): 0 μg/cotyledon | Accumulation of soluble carbohydrates in soybean seed coats (soybean explants [1]; [24]): 0 μg/seed coat | Accumulation of soluble carbohydrates in soybean axis (soybean explants [1]; [25]): Tr | Accumulation of soluble carbohydrates in soybean cotyledons (soybean explants [1]; [25]): 0 μg/cotyledon | Accumulation of soluble carbohydrates in soybean axis (soybean explants [1]; [26]): 0 μg/axis | Accumulation of soluble carbohydrates in soybean cotyledons (soybean explants [1]; [26]): 0 μg/cotyledon | Accumulation of soluble carbohydrates in soybean axis (soybean explants [1]; [27]): 0.01 μg/axis | Accumulation of soluble carbohydrates in soybean cotyledon (soybean explants [1]; [27]): 1.63 μg/cotyledon | Accumulation of soluble carbohydrates in soybean seed coats (soybean explants [1]; [27]): 0 μg/seed coat | Accumulation of soluble carbohydrates in soybean axis (soybean explants [1]; [28]): 0.07 μg/axis | Accumulation of soluble carbohydrates in soybean cotyledon (soybean explants [1]; [28]): 0 μg/cotyledon | Accumulation of soluble carbohydrates in soybean seed coats (soybean explants [1]; [28]): 0 μg/seed coat | Accumulation of soluble carbohydrates in soybean axis (soybean explants [1]; [29]): 0.80 μg/axis | Accumulation of soluble carbohydrates in soybean cotyledon (soybean explants [1]; [29]): 1.79 μg/cotyledon | Accumulation of soluble carbohydrates in soybean seed coats (soybean explants [1]; [29]): 0 μg/seed coat | Accumulation of soluble carbohydrates in soybean axis (soybean explants [1]; [30]): 0.71 μg/axis | Accumulation of soluble carbohydrates in soybean cotyledon (soybean explants [1]; [30]): 2.22 μg/cotyledon | Accumulation of soluble carbohydrates in soybean seed coats (soybean explants [1]; [30]): 0 μg/seed coat | Accumulation of soluble carbohydrates in soybean axis (soybean explants [1]; [31]): 0.94 μg/axis | Accumulation of soluble carbohydrates in soybean cotyledon (soybean explants [1]; [31]): 10.22 μg/cotyledon | Accumulation of soluble carbohydrates in soybean seed coats (soybean explants [1]; [31]): 0 μg/seed coat | Accumulation of soluble carbohydrates in soybean axis (soybean explants [1]; [32]): 0.63 μg/axis | Accumulation of soluble carbohydrates in soybean cotyledon (soybean explants [1]; [32]): 4.63 μg/cotyledon | Accumulation of soluble carbohydrates in soybean seed coats (soybean explants [1]; [32]): 0 μg/seed coat | Accumulation of soluble carbohydrates in soybean axis (soybean explants [1]; [33]): 0 μg/axis | Accumulation of soluble carbohydrates in soybean cotyledon (soybean explants [1]; [33]): 0 μg/cotyledon | Accumulation of soluble carbohydrates in soybean axis (soybean explants [1]; [34]): 0 μg/axis | Accumulation of soluble carbohydrates in soybean cotyledon (soybean explants [1]; [34]): 0 μg/cotyledon | change after feeding D-pinitol to explants (soybean explants [2]; axis tissue): doubled | increase after feeding D-pinitol to explants (soybean explants [2]; cotyledon tissue): 30%
